# At least one structure is not confirmed: it was looked up by name or label, or the drawing left a doubt.
# Sequences of proteins named here, by UniProt entry; tags and fusion partners are left off. A change or cut given only in a name is not applied to a line headed by its entry.
# UniProt Q9SBL1: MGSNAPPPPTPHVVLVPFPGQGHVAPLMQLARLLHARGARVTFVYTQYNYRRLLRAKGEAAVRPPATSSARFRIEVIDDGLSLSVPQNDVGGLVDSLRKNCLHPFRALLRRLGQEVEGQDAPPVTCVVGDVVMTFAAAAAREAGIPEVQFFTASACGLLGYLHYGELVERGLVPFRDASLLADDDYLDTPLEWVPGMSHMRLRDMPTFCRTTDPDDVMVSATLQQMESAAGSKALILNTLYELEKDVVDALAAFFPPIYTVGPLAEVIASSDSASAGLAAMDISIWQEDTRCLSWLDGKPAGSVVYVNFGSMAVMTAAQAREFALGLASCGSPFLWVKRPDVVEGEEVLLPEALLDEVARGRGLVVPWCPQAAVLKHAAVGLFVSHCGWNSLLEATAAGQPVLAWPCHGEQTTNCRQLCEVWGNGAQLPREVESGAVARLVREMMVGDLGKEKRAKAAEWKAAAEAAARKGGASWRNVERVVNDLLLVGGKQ
# Target: T1, recombinant sbHMNGT (UDP-glucose:p-hydroxymandelonitrile-glucosyltransferase) (Sorghum bicolor, UniProt Q9SBL1)
# T1 construct: are used to amplify a 1500 bp full-length sbHMNGT insert by PCR; made in house; host or cells: E. coli JM109, vector pSP19g10L
# Test: Substrate specificity of recombinant sbHMNGT (TLC, 14C-UDP-glucose)
# Assay type: biochemical
# Set-up: key: ▪: indicate that a radiolabelled product was visualised after incubation with the respective aglycone substrate; □: indicate that no radiolablled products could be detected under the experimental conditions employed
# Conditions: 1.25 mM aglycone, 100 ng recombinant sbHMNGT, 20 min at 30° C.
# Description: Generally a 20 μl reaction mixture including • 100 mM Tris HCl (pH 7.9), • 1–5 μM ^14C-UDP-glucose (11.0 GBq mmol^−1, Amersham LIFE SCIENCE), • 0–300 μM UDP-glucose, • 0–20 mM p-hydroxymandelonitrile (dissolved in water, freshly prepared), • 25 mM γ-gluconolactone, • 0–1 mg BSA and • 0.5–10 μl of protein preparation, is incubated at 30° C. between 2 minutes and 2 hours. Thereafter the reaction is terminated by the addition of 1/10 of the reaction volume of 10% acetic acid. The same assay conditions are used to determine the glucosylation of mandelonitrile, benzoic acid, benzylalcohol, geraniol and a number of other aglycons.
# To determine the substrate specificity of recombinant sbHMNGT incubation lasts for 20 min at 30° C. and the general protocol above is adapted to include • 1.25 mM aglycone (dissolved in ethanol except for flavonoids which are dissolved in ethylene glycol monoether), • 1.25 μM ^14C-UDP-glucose, • 12.5 μM UDP-glucose, • 100 ng recombinant sbHMNGT, and • 4 μg BSA. […]
# Glucosyltransterase activity was determined by TLC using ^14C-UDP-glucose. […] Empty boxes (□) indicate that no radiolablled products could be detected under the experimental conditions employed. Figures in brackets indicate the relative Vmax for each aglycon with calculated standard deviations.
structure (smiles),measurement,value
Oc1cc(O)c2cc(O)c(-c3ccc(O)c(O)c3)[o+]c2c1 [cyanidin],ACTIVITY Recombinant sbHMNGT (radiolabelled glucoside product),□
